# Source: the supplement of paper PMC10032668
# Chains of the proteins cited; added tags and fusions are not shown.
# TAF4, O00268, UniProt O00268, whole entry: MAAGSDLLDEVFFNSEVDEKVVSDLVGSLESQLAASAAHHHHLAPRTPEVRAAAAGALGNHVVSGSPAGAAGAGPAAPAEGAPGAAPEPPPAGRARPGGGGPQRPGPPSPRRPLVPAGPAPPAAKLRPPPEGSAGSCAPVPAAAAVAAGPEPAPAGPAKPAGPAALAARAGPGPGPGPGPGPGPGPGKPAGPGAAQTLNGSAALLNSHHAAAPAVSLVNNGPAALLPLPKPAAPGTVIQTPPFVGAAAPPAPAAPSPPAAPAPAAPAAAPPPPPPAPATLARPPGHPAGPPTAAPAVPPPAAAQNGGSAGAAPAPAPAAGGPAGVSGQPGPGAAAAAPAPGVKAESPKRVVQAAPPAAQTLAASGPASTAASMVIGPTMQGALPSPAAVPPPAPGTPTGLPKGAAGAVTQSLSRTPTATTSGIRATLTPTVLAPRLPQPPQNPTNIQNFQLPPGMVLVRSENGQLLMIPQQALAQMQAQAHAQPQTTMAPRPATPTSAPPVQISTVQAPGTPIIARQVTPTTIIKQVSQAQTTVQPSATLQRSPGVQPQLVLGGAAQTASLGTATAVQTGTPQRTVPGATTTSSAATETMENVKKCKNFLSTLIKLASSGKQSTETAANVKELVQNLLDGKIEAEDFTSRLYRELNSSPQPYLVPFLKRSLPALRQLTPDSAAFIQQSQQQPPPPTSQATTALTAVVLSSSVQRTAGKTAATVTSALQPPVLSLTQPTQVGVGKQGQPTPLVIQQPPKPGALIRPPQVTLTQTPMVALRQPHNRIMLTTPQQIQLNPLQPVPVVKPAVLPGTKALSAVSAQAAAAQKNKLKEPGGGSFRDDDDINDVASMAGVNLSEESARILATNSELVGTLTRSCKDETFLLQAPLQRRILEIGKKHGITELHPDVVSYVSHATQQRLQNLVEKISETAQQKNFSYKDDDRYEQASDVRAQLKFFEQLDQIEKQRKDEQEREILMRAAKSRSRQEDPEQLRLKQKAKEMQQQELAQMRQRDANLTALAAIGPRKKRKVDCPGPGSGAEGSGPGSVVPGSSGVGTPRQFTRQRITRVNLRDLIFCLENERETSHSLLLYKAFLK
# HSP90B1, P14625, UniProt P14625, whole entry: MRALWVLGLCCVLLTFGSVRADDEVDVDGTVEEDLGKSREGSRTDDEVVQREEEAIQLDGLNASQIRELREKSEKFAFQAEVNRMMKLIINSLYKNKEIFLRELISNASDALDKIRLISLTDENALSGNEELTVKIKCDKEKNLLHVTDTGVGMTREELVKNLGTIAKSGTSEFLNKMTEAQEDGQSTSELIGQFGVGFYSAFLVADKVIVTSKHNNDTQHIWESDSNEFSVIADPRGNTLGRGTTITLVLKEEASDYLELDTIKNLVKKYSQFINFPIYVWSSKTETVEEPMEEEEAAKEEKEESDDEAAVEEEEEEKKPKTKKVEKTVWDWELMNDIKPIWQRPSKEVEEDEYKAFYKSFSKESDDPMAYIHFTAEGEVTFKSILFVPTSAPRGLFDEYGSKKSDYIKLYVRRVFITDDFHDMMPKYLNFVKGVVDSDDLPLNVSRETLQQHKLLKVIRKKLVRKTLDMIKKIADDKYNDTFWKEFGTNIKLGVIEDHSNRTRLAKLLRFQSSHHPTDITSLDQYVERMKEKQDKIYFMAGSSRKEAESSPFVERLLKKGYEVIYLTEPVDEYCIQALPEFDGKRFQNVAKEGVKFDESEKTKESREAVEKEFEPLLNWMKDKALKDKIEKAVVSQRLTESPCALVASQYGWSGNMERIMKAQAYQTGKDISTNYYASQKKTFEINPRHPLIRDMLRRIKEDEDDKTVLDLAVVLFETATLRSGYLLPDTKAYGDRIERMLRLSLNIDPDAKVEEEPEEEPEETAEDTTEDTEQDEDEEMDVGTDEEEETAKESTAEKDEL
# LANCL1, O43813, UniProt O43813, whole entry: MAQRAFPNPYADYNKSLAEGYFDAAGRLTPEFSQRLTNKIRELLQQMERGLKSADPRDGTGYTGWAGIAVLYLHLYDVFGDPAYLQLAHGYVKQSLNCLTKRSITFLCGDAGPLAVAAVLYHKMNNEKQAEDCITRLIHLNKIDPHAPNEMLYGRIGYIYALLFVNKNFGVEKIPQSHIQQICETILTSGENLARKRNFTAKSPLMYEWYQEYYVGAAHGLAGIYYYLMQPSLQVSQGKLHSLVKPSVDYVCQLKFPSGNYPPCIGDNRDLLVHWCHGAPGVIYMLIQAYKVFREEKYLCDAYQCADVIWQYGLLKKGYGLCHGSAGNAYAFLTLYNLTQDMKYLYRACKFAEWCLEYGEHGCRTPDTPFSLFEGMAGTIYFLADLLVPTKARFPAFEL
# MAGOHB, Q96A72, UniProt Q96A72, whole entry: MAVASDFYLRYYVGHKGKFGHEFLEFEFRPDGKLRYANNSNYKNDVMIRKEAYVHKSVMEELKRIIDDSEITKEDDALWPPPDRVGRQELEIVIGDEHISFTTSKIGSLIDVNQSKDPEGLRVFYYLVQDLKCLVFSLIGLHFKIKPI
# RBBP4, Q09028, UniProt Q09028, whole entry: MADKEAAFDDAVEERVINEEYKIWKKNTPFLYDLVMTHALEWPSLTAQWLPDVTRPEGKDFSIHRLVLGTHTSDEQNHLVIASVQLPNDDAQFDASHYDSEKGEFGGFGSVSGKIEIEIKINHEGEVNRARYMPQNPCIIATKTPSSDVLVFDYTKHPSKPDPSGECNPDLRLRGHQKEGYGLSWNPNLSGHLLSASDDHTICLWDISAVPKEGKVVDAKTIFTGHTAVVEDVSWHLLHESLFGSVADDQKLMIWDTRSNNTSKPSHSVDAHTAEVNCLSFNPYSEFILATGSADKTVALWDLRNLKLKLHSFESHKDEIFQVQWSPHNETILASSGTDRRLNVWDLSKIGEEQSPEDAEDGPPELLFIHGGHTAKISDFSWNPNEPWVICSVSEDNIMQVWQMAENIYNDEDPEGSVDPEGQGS
# SF3B1, O75533, UniProt O75533, whole entry: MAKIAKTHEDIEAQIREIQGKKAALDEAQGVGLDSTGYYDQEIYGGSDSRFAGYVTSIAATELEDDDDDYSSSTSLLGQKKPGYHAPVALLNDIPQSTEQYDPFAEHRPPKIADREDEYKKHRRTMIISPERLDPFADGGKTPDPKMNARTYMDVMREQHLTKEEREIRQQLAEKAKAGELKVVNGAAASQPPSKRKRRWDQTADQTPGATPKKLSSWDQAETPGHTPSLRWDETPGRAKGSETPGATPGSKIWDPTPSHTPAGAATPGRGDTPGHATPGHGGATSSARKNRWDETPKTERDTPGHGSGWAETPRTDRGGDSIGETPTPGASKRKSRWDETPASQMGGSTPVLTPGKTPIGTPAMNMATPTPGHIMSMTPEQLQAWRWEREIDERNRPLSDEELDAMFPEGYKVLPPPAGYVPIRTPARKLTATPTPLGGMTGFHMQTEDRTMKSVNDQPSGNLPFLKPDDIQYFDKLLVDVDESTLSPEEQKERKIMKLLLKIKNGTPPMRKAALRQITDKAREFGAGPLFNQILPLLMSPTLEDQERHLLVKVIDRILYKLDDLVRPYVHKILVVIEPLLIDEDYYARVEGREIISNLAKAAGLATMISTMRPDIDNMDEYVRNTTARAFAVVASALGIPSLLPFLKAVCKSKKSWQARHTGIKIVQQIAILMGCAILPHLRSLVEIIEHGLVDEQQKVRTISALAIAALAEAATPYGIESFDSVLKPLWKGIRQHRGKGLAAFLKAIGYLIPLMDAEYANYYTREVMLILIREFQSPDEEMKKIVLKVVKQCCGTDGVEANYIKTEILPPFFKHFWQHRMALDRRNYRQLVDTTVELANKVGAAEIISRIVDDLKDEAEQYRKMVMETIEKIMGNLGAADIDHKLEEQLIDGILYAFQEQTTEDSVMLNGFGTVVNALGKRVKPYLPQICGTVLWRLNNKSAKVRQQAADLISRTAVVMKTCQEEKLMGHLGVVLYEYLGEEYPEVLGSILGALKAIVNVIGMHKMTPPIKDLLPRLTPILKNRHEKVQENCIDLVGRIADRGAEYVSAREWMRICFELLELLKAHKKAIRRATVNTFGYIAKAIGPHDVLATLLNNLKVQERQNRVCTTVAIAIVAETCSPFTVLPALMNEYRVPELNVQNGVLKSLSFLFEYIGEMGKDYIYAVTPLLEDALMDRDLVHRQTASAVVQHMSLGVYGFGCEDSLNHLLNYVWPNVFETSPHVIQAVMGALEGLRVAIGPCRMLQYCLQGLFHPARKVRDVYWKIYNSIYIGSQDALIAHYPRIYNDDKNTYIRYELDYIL
# SMARCC1, Q92922, UniProt Q92922, whole entry: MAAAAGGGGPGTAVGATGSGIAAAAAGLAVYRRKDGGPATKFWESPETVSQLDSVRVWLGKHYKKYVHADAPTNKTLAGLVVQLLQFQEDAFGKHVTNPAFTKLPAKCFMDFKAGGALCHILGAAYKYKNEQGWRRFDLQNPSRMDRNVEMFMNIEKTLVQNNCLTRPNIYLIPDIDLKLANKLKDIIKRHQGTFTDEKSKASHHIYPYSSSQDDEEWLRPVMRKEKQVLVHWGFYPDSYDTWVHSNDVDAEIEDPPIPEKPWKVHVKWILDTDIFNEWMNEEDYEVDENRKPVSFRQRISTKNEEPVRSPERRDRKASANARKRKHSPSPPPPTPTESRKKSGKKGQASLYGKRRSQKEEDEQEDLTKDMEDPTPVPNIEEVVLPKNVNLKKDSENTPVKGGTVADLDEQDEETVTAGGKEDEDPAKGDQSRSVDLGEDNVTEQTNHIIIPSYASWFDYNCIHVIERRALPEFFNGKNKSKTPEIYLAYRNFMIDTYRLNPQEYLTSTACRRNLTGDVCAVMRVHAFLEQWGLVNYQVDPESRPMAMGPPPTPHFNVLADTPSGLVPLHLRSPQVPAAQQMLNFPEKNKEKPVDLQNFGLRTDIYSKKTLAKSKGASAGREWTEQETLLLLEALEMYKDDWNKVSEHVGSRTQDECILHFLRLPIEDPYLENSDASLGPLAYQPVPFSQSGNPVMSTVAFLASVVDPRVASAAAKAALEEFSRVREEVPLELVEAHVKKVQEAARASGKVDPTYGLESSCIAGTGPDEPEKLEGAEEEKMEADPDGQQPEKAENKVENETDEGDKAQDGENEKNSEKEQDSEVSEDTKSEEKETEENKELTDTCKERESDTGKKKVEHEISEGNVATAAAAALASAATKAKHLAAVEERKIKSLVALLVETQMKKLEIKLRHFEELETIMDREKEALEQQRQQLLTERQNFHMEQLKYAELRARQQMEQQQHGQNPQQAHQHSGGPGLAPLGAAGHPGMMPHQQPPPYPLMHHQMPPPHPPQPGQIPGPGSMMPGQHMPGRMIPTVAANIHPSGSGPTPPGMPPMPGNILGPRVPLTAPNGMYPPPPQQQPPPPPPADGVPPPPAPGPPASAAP
# Some of the results follow. The list holds hits alone, and they repeat only in part.
# Key:
# Assay in all cases: PRISMA enrichment of interactor (LFQ) in peptide spot vs all other peptide spots (log2 fold change); higher = stronger / more specific binding of the interactor to the peptide
# CHERP, Q8IWX8 = biological target: CHERP, Q8IWX8
# Procedure: (§1)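 PRISMA: 15-aa overlapping tiles (offset 8 aa) of 60 microproteins, plus SOS1/GLUT1 control peptides, were spot-synthesized on cellulose membranes in triplicate. Membranes were incubated with benzonase-treated HEK293T lysate, and bound proteins were identified by LC-MS/MS with LFQ. Enrichment is the log2 fold change of each protein in one spot versus all other spots. Only interactors passing the significance cutoff are listed.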
# COQ5, Q5HYK3 = biological target: COQ5, Q5HYK3
# Procedure: as §1
# CXorf56, Q9H5V9 = biological target: CXorf56, Q9H5V9
# Procedure: as §1
# DDX21, Q9NR30 = biological target: DDX21, Q9NR30
# Procedure: as §1
# FANCD2, Q9BXW9 = biological target: FANCD2, Q9BXW9
# Procedure: as §1
# FUBP1, Q96AE4 = biological target: FUBP1, Q96AE4
# Procedure: as §1
# GLE1, Q53GS7 = biological target: GLE1, Q53GS7
# Procedure: as §1
# LARP1, Q6PKG0 = biological target: LARP1, Q6PKG0
# Procedure: as §1
# MGA, Q8IWI9 = biological target: MGA, Q8IWI9
# Procedure: as §1
# MPP1, Q00013 = biological target: MPP1, Q00013
# Procedure: as §1
# MRPL20, Q9BYC9 = biological target: MRPL20, Q9BYC9
# Procedure: as §1
# NOL6, Q9H6R4 = biological target: NOL6, Q9H6R4
# Procedure: as §1
# NOP58, Q9Y2X3 = biological target: NOP58, Q9Y2X3
# Procedure: as §1
# PDIA4, P13667 = biological target: PDIA4, P13667
# Procedure: as §1
# PINX1, Q96BK5 = biological target: PINX1, Q96BK5
# Procedure: as §1
# SART1, O43290 = biological target: SART1, O43290
# Procedure: as §1
# SF3B5, Q9BWJ5 = biological target: SF3B5, Q9BWJ5
# Procedure: as §1
# SP2, Q02086 = biological target: SP2, Q02086
# Procedure: as §1
# TAF4, O00268 = biological target: TAF4, O00268
# Procedure: as §1
# TARBP1, Q13395 = biological target: TARBP1, Q13395
# Procedure: as §1
# UTP11, Q9Y3A2 = biological target: UTP11, Q9Y3A2
# Procedure: as §1
# XRCC5, P13010 = biological target: XRCC5, P13010
# Procedure: as §1
# YLPM1, P49750 = biological target: YLPM1, P49750
# Procedure: as §1
# YWHAG, P61981 = biological target: YWHAG, P61981
# Procedure: as §1
# CHMP1A, Q9HD42 = biological target: CHMP1A, Q9HD42
# Procedure: as §1
# DDX27, Q96GQ7 = biological target: DDX27, Q96GQ7
# Procedure: as §1
# HSP90B1, P14625 = biological target: HSP90B1, P14625
# Procedure: as §1
# LANCL1, O43813 = biological target: LANCL1, O43813
# Procedure: as §1
# LEO1, Q8WVC0 = biological target: LEO1, Q8WVC0
# Procedure: as §1
# LTF, P02788 = biological target: LTF, P02788
# Procedure: as §1
# MAGOHB, Q96A72 = biological target: MAGOHB, Q96A72
# Procedure: as §1
# MRPL49, Q13405 = biological target: MRPL49, Q13405
# Procedure: as §1
# NAA35, Q5VZE5 = biological target: NAA35, Q5VZE5
# Procedure: as §1
# NDUFB10, O96000 = biological target: NDUFB10, O96000
# Procedure: as §1
# NEFM, P07197 = biological target: NEFM, P07197
# Procedure: as §1
# PDAP1, Q13442 = biological target: PDAP1, Q13442
# Procedure: as §1
# POLR2E, P19388 = biological target: POLR2E, P19388
# Procedure: as §1
# POU2F1, P14859 = biological target: POU2F1, P14859
# Procedure: as §1
# RBBP4, Q09028 = biological target: RBBP4, Q09028
# Procedure: as §1
# RBBP6, Q7Z6E9 = biological target: RBBP6, Q7Z6E9
# Procedure: as §1
# SCML2, Q9UQR0 = biological target: SCML2, Q9UQR0
# Procedure: as §1
# SEPTIN7, Q16181 = biological target: SEPTIN7, Q16181
# Procedure: as §1
# SF3B1, O75533 = biological target: SF3B1, O75533
# Procedure: as §1
# SMARCC1, Q92922 = biological target: SMARCC1, Q92922
# Procedure: as §1
# SNU13, P55769 = biological target: SNU13, P55769
# Procedure: as §1
# UPF1, Q92900 = biological target: UPF1, Q92900
# Procedure: as §1
# ZNF483, Q8TF39 = biological target: ZNF483, Q8TF39
# Procedure: as §1
binder,measurement,setting,value
GPSRPVLGIDYSKKE [LINC01560],PRISMA enrichment of interactor (log2),"CHERP, Q8IWX8",4.55
same,PRISMA enrichment of interactor (log2),"COQ5, Q5HYK3",3.92
same,PRISMA enrichment of interactor (log2),"CXorf56, Q9H5V9",4.73
same,PRISMA enrichment of interactor (log2),"DDX21, Q9NR30",4.4
same,PRISMA enrichment of interactor (log2),"FANCD2, Q9BXW9",4.27
same,PRISMA enrichment of interactor (log2),"FUBP1, Q96AE4",5.09
same,PRISMA enrichment of interactor (log2),"GLE1, Q53GS7",5.37
same,PRISMA enrichment of interactor (log2),"LARP1, Q6PKG0",6.54
same,PRISMA enrichment of interactor (log2),"MGA, Q8IWI9",7.43
same,PRISMA enrichment of interactor (log2),"MPP1, Q00013",6.26
same,PRISMA enrichment of interactor (log2),"MRPL20, Q9BYC9",4.79
same,PRISMA enrichment of interactor (log2),"NOL6, Q9H6R4",5.32
same,PRISMA enrichment of interactor (log2),"NOP58, Q9Y2X3",4.87
same,PRISMA enrichment of interactor (log2),"PDIA4, P13667",4.98
same,PRISMA enrichment of interactor (log2),"PINX1, Q96BK5",6.43
same,PRISMA enrichment of interactor (log2),"SART1, O43290",4.51
same,PRISMA enrichment of interactor (log2),"SF3B5, Q9BWJ5",4.84
same,PRISMA enrichment of interactor (log2),"SP2, Q02086",5.59
same,PRISMA enrichment of interactor (log2),"TAF4, O00268",5.71
same,PRISMA enrichment of interactor (log2),"TARBP1, Q13395",6.06
same,PRISMA enrichment of interactor (log2),"UTP11, Q9Y3A2",5.78
same,PRISMA enrichment of interactor (log2),"XRCC5, P13010",4.54
same,PRISMA enrichment of interactor (log2),"YLPM1, P49750",4.91
same,PRISMA enrichment of interactor (log2),"YWHAG, P61981",6.04
AFSDDGAVSLSFQSR [SNHG16],PRISMA enrichment of interactor (log2),"CHMP1A, Q9HD42",4.37
same,PRISMA enrichment of interactor (log2),"DDX27, Q96GQ7",4.67
same,PRISMA enrichment of interactor (log2),"HSP90B1, P14625",5.63
same,PRISMA enrichment of interactor (log2),"LANCL1, O43813",4.07
same,PRISMA enrichment of interactor (log2),"LEO1, Q8WVC0",4.56
same,PRISMA enrichment of interactor (log2),"LTF, P02788",4.55
same,PRISMA enrichment of interactor (log2),"MAGOHB, Q96A72",6.91
same,PRISMA enrichment of interactor (log2),"MRPL49, Q13405",4.72
same,PRISMA enrichment of interactor (log2),"NAA35, Q5VZE5",4.37
same,PRISMA enrichment of interactor (log2),"NDUFB10, O96000",4.74
same,PRISMA enrichment of interactor (log2),"NEFM, P07197",4.35
same,PRISMA enrichment of interactor (log2),"PDAP1, Q13442",4.97
same,PRISMA enrichment of interactor (log2),"POLR2E, P19388",5.18
same,PRISMA enrichment of interactor (log2),"POU2F1, P14859",4.03
same,PRISMA enrichment of interactor (log2),"RBBP4, Q09028",6.54
same,PRISMA enrichment of interactor (log2),"RBBP6, Q7Z6E9",4.45
same,PRISMA enrichment of interactor (log2),"SCML2, Q9UQR0",4.87
same,PRISMA enrichment of interactor (log2),"SEPTIN7, Q16181",4.17
same,PRISMA enrichment of interactor (log2),"SF3B1, O75533",4.79
same,PRISMA enrichment of interactor (log2),"SMARCC1, Q92922",4.72
same,PRISMA enrichment of interactor (log2),"SNU13, P55769",5.71
same,PRISMA enrichment of interactor (log2),"UPF1, Q92900",5.72
same,PRISMA enrichment of interactor (log2),"ZNF483, Q8TF39",5.85

# A second format for part of the listing above.
binder	measurement	setting	value
GPSRPVLGIDYSKKE [LINC01560]	PRISMA enrichment of interactor (log2)	CXorf56, Q9H5V9	4.73
same	PRISMA enrichment of interactor (log2)	MGA, Q8IWI9	7.43
same	PRISMA enrichment of interactor (log2)	MPP1, Q00013	6.26
same	PRISMA enrichment of interactor (log2)	NOL6, Q9H6R4	5.32
same	PRISMA enrichment of interactor (log2)	PDIA4, P13667	4.98
same	PRISMA enrichment of interactor (log2)	PINX1, Q96BK5	6.43
same	PRISMA enrichment of interactor (log2)	SART1, O43290	4.51
same	PRISMA enrichment of interactor (log2)	TARBP1, Q13395	6.06
AFSDDGAVSLSFQSR [SNHG16]	PRISMA enrichment of interactor (log2)	CHMP1A, Q9HD42	4.37
same	PRISMA enrichment of interactor (log2)	HSP90B1, P14625	5.63
same	PRISMA enrichment of interactor (log2)	LANCL1, O43813	4.07
same	PRISMA enrichment of interactor (log2)	POU2F1, P14859	4.03
same	PRISMA enrichment of interactor (log2)	RBBP6, Q7Z6E9	4.45
